No constants are given. Whether binding was seen depends on the method and setting. In cells and extracts the contact can be indirect. These calls come from enrichment with a bait or labelling near it, and not all partners need be listed. A no says only that the protein was not detected with the bait. Sequences can lack the tags named with a protein.
Assays:
[1] = molecular target: T1, ASI1-IMMUNO… PROTEIN 3 (AIPP3), epitope-tagged in transgenic Arabidopsis (Arabidopsis) (UniProt Q8RXT5); test: affinity purification with mass spectrometry; total proteins of inflorescence tissues of epitope-tagged transgenic plants in IP buffer (50 mM Tris-HCl pH 7.6, 150 mM NaCl, 5 mM MgCl2, 10% glycerol, 0.1% NP-40, 0.5 mM DTT), precipitated with anti-Flag or anti-Myc antibodies 2 h at 4 °C, five washes, MS
T1 sequence: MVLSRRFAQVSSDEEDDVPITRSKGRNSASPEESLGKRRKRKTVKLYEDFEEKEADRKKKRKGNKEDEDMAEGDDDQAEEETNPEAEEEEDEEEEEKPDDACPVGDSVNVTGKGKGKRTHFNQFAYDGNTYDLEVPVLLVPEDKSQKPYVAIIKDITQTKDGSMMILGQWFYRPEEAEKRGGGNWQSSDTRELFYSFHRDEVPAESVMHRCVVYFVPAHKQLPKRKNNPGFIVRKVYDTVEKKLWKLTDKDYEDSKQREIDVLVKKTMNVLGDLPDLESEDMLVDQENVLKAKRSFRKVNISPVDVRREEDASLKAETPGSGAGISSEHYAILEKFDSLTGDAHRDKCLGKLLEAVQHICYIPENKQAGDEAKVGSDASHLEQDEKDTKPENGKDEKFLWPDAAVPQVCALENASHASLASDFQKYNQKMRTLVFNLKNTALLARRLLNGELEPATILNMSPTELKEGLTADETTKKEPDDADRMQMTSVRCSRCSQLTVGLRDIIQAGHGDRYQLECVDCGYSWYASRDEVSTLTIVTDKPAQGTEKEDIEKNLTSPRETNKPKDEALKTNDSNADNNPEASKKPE

[2] = molecular target: T2, CPL2, epitope-tagged in transgenic Arabidopsis (Arabidopsis) (UniProt Q5YDB5); test: as above
T2 sequence: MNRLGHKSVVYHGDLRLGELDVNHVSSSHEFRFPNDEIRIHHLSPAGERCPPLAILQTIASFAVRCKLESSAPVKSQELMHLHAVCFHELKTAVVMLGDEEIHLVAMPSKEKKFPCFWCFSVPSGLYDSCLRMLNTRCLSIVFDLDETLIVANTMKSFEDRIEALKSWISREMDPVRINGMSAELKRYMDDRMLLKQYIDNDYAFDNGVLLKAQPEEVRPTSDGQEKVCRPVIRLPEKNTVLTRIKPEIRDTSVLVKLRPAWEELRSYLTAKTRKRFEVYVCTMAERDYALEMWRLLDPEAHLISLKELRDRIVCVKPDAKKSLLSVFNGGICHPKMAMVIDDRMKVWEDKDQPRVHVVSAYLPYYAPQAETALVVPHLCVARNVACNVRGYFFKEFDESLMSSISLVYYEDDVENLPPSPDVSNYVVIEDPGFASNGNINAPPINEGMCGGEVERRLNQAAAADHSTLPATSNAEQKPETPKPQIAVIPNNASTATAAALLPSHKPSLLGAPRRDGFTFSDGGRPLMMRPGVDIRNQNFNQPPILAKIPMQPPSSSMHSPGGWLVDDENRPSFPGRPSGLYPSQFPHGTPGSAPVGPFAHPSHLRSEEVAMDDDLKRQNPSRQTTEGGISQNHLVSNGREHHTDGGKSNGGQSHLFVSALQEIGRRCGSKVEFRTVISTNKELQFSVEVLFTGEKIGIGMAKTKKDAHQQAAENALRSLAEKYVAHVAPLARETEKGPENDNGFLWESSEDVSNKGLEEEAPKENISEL

binding [1]: no binding | binding [2]: no binding
B1: EMBRYONIC FLOWER 1 (EMF1) (protein, UniProt Q9LYD9 1-1096)
chain: MGSSIKINSISIDLAGAANEIDMVKCDHFSMRGFVAETRERDLRKCWPFSEESVSLVDQQSYTLPTLSVPKFRWWHCMSCIKDIDAHGPKDCGLHSNSKAIGNSSVIESKSKFNSLTIIDHEKEKKTDIADNAIEEKVGVNCENDDQTATTFLKKARGRPMGASNVRSKSRKLVSPEQVGNNRSKEKLNKPSMDISSWKEKQNVDQAVTTFGSSEIAGVVEDTPPKATKNHKGIRGLMECDNGSSESINLAMSGLQRRKSRKVRLLSELLGNTKTSGGSNIRKEESALKKESVRGRKRKLLPENNYVSRILSTMGATSENASKSCDSDQGNSESTDSGFDRTPFKGKQRNRRFQVVDEFVPSLPCETSQEGIKEHDADPSKRSTPAHSLFTGNDSVPCPPGTQRTERKLSLPKKKTKKPVIDNGKSTVISFSNGIDGSQVNSHTGPSMNTVSQTRDLLNGKRVGGLFDNRLASDGYFRKYLSQVNDKPITSLHLQDNDYVRSRDAEPNCLRDFSSSSKSSSGGWLRTGVDIVDFRNNNHNTNRSSFSNLKLRYPPSSTEVADLSRVLQKDASGADRKGKTVMVQEHHGAPRSQSHDRKETTTEEQNNDDIPMEIVELMAKNQYERCLPDKEEDVSNKQPSQETAHKSKNALLIDLNETYDNGISLEDNNTSRPPKPCSSNARREEHFPMGRQQNSHDFFPISQPYVPSPFGIFPPTQENRASSIRFSGHNCQWLGNLPTVGNQNPSPSSFRVLRACDTCQSVPNQYREASHPIWPSSMIPPQSQYKPVSLNINQSTNPGTLSQASNNENTWNLNFVAANGKQKCGPNPEFSFGCKHAAGVSSSSSRPIDNFSSESSIPALHLLSLLDPRLRSTTPADQHGNTKFTKRHFPPANQSKEFIELQTGDSSKSAYSTKQIPFDLYSKRFTQEPSRKSFPITPPIGTSSLSFQNASWSPHHQEKKTKRKDTFAPVYNTHEKPVFASSNDQAKFQLLGASNSMMLPLKFHMTDKEKKQKRKAESCNNNASAGPVKNSSGPIVCSVNRNPADFTIPEPGNVYMLTGEHLKVRKRTTFKKKPAVCKQDAMKQTKKPVCPPTQNA
